Some entries share one result that the patent states for a list of compounds. Some compounds share one range, which may span the group rather than tell each member.
System: anti-CD3/anti-CD28 antibodies stimulated human PBMC
Test: Cytokine release after T cell receptor mediated PBMC activation (anti-CD3/anti-CD28)
Assay type: cell-based
Details: 48 h, one range for all three cytokines

B1: sCD164: SEQ ID NO: 15, mature full-length CD164 extracellular domain (exons 1 to 6), expressed with C-terminal hexa-histidine tag (protein)
chain: DKNTTQHPNVTTLAPISNVTSAPVTSLPLVTTPAPETCEGRNSCVSCFNVSVVNTTCFWIECKDESYCSHNSTVSDCQVGNTTDFCSVSTATPVPTANSTAKPTVQPSPSTTSKTVTTSGTTNNTVTPTSQPVRKSTFDA
modifications: homo sapiens
EC50, decrease of release of the cytokines TNFa, IL-2 and IL-4: 1 to 10 µg/mL

B2: sCD164-Fcm: SEQ ID NO: 18, sCD164 fused to an Fc part mutated in the Fc receptor and C1q binding regions (protein, listed as Homo sapiens)
chain: DKNTTQHPNVTTLAPISNVTSAPVTSLPLVTTPAPETCEGRNSCVSCFNVSVVNTTCFWIECKDESYCSHNSTVSDCQVGNTTDFCSVSTATPVPTANSTAKPTVQPSPSTTSKTVTTSGTTNNTVTPTSQPVRKSTFDAEPKSCDKTHTCPPCPAPEAEGAPSVFLFPPKPKDTLMISRTPEVTCVVVDVSHEDPEVKFNWYVDGVEVHNAKTKPREEQYNSTYRVVSVLTVLHQDWLNGKEYKCKVSNKALPSSIEKTISKAKGQPREPQVYTLPPSREEMTKNQVSLTCLVKGFYPSDIAVEWESNGQPENNYKTTPPVLDSDGSFFLYSKLTVDKSRWQQGNVFSCSVMHEALHNHYTQKSLSLSPGK
EC50, decrease of release of the cytokines TNFa, IL-2 and IL-4: 1 to 10 µg/mL

Source: patent US7803910B2, “Soluble CD164 polypeptides” (Merck Serono S.A., priority 2005, dated 2010)
